Results from paper PMC9670113.
These are yes or no findings as the source states them, for the method shown. In cells and extracts the contact can be indirect. Some results given as binding are weak or reduced against the parent protein; the word gives no strength.

Chains of the proteins cited; added tags and fusions are not shown.
UniProt Q9WTS4: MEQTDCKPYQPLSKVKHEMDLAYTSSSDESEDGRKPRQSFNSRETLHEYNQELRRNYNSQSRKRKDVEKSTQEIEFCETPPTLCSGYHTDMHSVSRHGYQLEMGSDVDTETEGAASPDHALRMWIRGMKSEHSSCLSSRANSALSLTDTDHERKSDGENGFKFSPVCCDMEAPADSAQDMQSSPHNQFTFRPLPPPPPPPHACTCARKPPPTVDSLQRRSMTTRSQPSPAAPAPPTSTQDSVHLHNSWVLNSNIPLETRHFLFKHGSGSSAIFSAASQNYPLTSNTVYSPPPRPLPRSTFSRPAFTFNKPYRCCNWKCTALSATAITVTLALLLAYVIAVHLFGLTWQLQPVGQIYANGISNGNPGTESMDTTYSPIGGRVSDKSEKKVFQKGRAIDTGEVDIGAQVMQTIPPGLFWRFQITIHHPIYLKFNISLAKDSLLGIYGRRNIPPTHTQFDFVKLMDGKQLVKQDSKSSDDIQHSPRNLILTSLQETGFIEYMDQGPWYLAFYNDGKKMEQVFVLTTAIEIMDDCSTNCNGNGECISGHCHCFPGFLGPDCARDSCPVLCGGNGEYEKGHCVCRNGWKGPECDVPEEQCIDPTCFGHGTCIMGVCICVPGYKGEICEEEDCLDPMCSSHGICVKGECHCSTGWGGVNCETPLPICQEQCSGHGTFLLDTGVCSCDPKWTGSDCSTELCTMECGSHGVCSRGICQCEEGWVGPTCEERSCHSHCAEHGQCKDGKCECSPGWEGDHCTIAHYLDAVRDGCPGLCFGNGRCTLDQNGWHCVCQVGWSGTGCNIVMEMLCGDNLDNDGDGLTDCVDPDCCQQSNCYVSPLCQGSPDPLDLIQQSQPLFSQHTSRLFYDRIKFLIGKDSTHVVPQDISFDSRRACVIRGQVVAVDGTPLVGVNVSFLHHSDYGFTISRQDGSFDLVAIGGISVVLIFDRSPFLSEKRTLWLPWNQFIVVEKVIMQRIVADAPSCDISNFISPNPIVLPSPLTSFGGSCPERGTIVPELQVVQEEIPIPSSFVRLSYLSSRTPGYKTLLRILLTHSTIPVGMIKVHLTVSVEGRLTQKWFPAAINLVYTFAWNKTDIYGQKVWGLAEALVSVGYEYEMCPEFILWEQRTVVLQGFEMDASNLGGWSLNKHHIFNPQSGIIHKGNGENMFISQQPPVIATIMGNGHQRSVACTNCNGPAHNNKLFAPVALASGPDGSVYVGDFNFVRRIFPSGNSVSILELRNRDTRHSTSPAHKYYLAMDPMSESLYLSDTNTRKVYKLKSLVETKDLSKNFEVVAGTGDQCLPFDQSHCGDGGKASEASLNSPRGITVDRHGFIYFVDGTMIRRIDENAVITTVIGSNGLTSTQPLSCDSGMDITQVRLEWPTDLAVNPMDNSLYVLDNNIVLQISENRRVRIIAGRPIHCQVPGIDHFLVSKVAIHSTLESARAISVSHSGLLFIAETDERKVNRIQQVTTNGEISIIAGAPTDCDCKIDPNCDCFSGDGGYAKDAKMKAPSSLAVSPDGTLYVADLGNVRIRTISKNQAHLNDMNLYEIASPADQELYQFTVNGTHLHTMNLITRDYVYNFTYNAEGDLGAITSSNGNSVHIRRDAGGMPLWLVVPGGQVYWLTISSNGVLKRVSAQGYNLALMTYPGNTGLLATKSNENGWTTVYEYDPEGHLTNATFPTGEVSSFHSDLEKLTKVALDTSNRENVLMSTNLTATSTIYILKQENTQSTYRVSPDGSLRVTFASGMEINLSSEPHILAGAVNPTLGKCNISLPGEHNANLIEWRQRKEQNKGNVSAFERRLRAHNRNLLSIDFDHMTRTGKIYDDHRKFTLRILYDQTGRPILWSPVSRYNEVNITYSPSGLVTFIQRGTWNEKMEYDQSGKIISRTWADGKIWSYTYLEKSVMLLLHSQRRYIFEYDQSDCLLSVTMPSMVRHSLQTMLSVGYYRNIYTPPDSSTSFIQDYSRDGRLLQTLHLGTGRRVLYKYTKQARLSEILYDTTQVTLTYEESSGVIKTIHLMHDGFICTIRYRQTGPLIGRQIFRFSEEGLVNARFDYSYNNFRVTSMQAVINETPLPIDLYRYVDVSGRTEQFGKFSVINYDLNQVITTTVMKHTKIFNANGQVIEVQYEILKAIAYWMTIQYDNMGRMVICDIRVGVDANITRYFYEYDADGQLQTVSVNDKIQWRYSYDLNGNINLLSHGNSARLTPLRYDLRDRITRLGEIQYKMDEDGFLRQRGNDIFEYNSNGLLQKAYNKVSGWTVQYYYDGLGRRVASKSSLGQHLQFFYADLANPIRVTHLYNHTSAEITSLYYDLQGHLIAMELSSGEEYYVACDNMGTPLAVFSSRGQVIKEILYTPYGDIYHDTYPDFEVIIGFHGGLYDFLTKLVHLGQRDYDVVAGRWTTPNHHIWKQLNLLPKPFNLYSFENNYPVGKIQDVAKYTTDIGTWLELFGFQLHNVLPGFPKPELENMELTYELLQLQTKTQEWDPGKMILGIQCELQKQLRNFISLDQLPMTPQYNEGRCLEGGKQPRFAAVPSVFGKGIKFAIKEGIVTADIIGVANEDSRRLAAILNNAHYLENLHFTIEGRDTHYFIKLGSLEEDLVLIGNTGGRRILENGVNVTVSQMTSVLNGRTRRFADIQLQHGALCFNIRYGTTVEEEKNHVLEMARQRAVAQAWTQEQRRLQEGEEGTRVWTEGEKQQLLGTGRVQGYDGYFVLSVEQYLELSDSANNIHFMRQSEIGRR
UniProt Q9WTS5: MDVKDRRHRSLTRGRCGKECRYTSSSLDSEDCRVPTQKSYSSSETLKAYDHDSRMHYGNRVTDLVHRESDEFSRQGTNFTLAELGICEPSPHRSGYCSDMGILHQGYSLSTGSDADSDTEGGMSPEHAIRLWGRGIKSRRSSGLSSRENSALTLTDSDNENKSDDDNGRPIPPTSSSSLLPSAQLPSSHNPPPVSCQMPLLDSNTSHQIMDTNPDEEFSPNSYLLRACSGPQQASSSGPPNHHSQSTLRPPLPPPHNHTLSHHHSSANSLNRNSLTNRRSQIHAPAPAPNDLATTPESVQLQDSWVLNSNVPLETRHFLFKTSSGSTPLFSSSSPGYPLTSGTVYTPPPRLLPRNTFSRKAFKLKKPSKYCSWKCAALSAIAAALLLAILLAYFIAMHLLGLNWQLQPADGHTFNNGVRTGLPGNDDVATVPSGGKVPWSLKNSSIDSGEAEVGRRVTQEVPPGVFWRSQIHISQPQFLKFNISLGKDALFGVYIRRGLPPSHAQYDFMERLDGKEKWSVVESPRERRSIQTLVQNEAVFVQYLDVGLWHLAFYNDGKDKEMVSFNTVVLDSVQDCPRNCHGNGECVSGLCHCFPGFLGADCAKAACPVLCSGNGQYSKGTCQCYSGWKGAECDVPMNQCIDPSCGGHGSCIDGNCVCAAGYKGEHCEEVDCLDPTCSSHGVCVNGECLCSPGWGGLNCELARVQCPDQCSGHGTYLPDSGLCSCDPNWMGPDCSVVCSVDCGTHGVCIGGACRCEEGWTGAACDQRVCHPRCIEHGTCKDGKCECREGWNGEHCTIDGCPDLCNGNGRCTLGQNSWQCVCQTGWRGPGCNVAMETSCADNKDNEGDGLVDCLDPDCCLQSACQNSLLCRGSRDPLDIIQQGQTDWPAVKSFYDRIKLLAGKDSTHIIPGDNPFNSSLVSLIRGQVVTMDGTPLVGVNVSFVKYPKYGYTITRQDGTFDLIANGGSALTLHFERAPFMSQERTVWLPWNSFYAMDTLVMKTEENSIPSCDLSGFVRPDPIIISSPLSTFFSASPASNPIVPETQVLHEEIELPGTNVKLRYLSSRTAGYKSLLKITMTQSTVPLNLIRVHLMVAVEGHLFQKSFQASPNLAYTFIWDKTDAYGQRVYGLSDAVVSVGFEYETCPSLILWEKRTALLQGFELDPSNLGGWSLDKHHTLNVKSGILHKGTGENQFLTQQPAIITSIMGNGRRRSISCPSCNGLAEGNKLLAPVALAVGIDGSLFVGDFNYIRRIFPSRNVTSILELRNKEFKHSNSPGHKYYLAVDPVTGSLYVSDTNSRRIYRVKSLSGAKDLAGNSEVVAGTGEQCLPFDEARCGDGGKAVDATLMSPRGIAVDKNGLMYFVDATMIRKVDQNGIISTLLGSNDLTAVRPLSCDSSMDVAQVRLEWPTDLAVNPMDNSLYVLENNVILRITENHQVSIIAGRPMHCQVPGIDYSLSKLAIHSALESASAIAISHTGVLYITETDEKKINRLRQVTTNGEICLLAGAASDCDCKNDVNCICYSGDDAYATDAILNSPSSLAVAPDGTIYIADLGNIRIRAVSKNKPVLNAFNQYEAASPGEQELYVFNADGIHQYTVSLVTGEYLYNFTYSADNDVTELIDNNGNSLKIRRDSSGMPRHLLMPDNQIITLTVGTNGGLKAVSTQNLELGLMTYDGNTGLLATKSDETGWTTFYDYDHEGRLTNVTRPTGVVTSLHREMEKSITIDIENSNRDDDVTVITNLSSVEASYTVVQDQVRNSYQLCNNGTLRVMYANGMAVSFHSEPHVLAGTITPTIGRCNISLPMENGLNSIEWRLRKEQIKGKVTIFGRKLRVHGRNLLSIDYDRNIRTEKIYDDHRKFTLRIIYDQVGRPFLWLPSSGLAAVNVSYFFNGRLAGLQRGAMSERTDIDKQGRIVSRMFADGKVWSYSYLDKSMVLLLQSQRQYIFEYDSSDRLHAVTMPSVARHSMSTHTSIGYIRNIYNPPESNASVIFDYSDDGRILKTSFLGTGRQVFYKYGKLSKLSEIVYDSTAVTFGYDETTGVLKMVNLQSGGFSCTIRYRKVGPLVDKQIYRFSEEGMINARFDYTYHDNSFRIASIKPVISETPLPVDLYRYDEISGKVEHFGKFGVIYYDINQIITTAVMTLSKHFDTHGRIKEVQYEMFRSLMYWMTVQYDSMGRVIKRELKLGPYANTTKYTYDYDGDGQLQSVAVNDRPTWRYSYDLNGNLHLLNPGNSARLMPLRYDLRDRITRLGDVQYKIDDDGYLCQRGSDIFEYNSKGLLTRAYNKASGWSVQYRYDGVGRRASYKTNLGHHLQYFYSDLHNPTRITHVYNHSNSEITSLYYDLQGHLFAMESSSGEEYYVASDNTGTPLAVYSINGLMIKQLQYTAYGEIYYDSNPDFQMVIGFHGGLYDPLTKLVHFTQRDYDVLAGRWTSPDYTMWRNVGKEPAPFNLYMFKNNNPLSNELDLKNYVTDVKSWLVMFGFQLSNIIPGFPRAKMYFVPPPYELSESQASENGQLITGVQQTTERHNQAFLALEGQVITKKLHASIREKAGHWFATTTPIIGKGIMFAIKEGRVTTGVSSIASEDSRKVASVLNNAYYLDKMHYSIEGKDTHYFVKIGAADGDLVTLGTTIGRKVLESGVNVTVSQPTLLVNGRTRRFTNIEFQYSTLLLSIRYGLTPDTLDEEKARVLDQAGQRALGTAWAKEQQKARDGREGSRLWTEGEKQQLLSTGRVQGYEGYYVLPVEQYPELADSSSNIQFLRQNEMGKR

Assays:
Assay in all cases: co-IP; EGFP-tagged teneurin bait (or EGFP-only control bait) co-transfected with tagRFP/Myc-tagged teneurin prey in Neuro2A cells; lysates collected after 2 DIV and immunoprecipitated with GFP-Trap agarose beads; blots probed with anti-myc tag (prey)
[1] = target: teneurin paralogue Tenm1, full length mouse (EGFP-tagged as bait; tagRFP/Myc-tagged as prey) (mouse) (UniProt Q9WTS4)
[2] = target: teneurin paralogue Tenm2, full length mouse (EGFP-tagged as bait; tagRFP/Myc-tagged as prey) (mouse) (UniProt Q9WTS5)
[3] = target: teneurin paralogue Tenm3, full length mouse (EGFP-tagged as bait; tagRFP/Myc-tagged as prey) (mouse) (UniProt Q9WTS6)
[4] = target: teneurin paralogue Tenm4, full length mouse (EGFP-tagged as bait; tagRFP/Myc-tagged as prey) (mouse) (UniProt Q3UHK6)

Measured: binding

teneurin paralogue Tenm1, full length mouse (EGFP-tagged as bait; tagRFP/Myc-tagged as prey) (from UniProt Q9WTS4 1-2731)
binds: all assays above

teneurin paralogue Tenm3, full length mouse (EGFP-tagged as bait; tagRFP/Myc-tagged as prey) (from UniProt Q9WTS6 1-2715)
binds: [1] | [2] | [4]

teneurin paralogue Tenm2, full length mouse (EGFP-tagged as bait; tagRFP/Myc-tagged as prey) (from UniProt Q9WTS5 1-2764)
binds: all assays above

teneurin paralogue Tenm4, full length mouse (EGFP-tagged as bait; tagRFP/Myc-tagged as prey) (from UniProt Q3UHK6 1-2771)
binds: all assays above
